No constants are given. Whether binding was seen depends on the method and setting. Binding seen in cells or lysates may run through a third protein. Some entries that bind do so weakly or less than the wild type.
T1: MOV10L1 (mouse (endogenous in testis)) (UniProt Q99MV5)
T1 sequence: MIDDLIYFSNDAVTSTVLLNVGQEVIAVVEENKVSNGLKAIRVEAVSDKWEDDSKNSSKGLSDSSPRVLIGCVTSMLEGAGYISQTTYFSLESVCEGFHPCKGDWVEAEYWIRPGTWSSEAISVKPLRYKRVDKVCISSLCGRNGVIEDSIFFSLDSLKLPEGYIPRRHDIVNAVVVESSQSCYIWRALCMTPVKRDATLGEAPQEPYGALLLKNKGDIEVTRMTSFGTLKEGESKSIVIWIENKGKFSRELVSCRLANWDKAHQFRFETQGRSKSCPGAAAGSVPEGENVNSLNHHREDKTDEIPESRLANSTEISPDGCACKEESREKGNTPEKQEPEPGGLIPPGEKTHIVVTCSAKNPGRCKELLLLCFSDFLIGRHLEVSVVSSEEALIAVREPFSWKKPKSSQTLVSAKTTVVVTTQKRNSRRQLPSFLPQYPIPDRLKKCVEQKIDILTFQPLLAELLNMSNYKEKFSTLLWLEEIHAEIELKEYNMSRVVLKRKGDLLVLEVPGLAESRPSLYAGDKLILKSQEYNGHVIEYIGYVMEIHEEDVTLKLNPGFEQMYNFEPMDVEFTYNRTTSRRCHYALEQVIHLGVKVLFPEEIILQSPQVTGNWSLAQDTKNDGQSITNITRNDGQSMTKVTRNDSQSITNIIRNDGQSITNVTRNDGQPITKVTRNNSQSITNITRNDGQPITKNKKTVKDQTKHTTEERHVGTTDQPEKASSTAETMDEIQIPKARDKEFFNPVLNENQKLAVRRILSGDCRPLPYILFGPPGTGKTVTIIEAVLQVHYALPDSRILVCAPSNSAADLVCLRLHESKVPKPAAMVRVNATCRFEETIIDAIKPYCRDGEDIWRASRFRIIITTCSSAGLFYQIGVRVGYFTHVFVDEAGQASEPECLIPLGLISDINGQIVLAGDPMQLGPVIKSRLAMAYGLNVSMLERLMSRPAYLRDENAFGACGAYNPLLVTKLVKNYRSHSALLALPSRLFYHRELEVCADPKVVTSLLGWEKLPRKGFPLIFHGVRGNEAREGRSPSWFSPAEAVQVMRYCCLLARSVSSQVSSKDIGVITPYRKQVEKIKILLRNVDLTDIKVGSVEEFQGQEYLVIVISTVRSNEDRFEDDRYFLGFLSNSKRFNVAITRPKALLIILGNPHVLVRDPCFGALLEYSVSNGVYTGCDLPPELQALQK

By UniProt entry, the sequences of proteins in these tests, tags left out.
UniProt Q8CDG1: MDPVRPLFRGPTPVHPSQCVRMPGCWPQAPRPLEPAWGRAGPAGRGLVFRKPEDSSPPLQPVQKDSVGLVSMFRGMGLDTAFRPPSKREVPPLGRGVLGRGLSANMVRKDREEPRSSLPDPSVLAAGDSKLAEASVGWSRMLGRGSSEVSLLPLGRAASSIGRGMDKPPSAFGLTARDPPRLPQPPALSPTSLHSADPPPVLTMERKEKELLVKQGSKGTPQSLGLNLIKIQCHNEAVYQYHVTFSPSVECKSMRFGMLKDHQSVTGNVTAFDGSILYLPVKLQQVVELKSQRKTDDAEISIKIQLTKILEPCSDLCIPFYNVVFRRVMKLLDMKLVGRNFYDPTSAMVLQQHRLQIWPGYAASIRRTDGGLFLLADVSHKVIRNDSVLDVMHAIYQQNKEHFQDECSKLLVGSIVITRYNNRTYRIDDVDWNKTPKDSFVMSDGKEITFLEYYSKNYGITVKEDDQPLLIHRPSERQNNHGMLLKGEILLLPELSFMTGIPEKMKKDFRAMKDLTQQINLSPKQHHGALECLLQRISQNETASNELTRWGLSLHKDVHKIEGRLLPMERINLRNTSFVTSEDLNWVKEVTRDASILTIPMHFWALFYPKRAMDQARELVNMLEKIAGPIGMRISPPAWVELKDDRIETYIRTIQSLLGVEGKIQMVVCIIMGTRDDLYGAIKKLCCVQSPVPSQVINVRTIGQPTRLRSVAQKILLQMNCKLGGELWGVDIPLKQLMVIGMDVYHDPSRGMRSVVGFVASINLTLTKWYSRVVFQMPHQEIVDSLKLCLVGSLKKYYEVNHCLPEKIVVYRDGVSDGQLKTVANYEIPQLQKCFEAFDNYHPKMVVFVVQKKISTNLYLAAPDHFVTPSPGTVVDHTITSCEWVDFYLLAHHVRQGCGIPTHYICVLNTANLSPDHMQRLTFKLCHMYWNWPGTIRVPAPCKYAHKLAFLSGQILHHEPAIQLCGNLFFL


Key:
[1] = biological target: T1, MOV10L1 (mouse (endogenous in testis)); assay: co-IP; postnatal day 20 testicular extracts (Mov10l1 fl/- Neurog3-Cre) immunoprecipitated with anti-MILI and anti-MOV10L1 antibodies, Western blot; input 1/50 of the extract used for IP
[2] = biological target: MILI (mouse (endogenous in testis)) (UniProt Q8CDG1); assay: as above

binding [1]	binding [2]	Binder
binds	binds	TDRD1 (protein, UniProt Q99MV1 1-1172) MMPRNNLEASTCKMAEPFNFEKKESKPPPQDPLRSPVAQHNHPTFRLKSPENGNTKNNFLLCEQNKQYLASQEDSSVVSSNPAVVNGEVGGSKGDRKPPPTGNPVSPLSLGNSSPPNQVKTKPSSNVTPEKSKKSHKLFENALSVNNPALFNSLGPPLRSTTCHRCGLFGSLRCSQCKQTYYCSTACQRRDWSSHSTICRPVQQSLNKLEDNKSPFETKAIEVKSEVDCPPGVTKEITAGAERVMFSDLRSLQLKKTMEIKGTVTEFKHPSNFYIQLYSSEVLENMNQLSTSLKETYANVVPEDGYLPVKGEVCVAKYTVDQTWNRAIVQAVDVLQRKAHVLYIDYGNEEMIPIDSVHPLSRGLDLFPPSAIKCCVSGVIPTAGEWSEGCVAAVKALLFEQFCSVKVMDILEEEVLTCAVDLVLQSSGKQLDHVLVEMGYGVKPGEQSSTEQSVDHSALEDVGRVTVESKIVTDRNALIPKVLTLNVGDEFCGVVAHIQTPEDFFCQQLQSGHKLAELQESLSEYCGHVIPRSDFYPTIGDVCCAQFSEDDQWYRASVLAYASEESVLVGYVDYGNFEILSLKRLCPIIPKLLDLPMQALNCVLAGVKPSLGIWTPEAVCVMKEMVQNRMVTVRVVGMLGTRALVELIDKSVAPHVSASKALIDSGFAIKEKDVADKGSSMHTASVPLAIEGPAEALEWTWVEFTVDETVDVVVCMMYSPGEFYCHFLKDDALEKLDDLNQSLADYCAQKPPNGFKAEIGRPCCAFFSGDGNWYRALVKEILPSGNVKVHFVDYGNVEEVTTDQLQAILPQFLLLPFQGMQCWLVDIQPPNKHWTKEATARFQACVVGLKLQARVVEITANGVGVELTDLSTPYPKIISDVLIREQLVLRCGSPQDSLMSRPANQHKQIDSHRVQASPSAEQWKTMELPVNKTIAANVLEIISPALFYAIPSEMSENQEKLCVLAAELLEHCNAQKGQPAYRPRTGDACCAKYTNDDFWYRAIVLETSESDVKVLYADYGNIETLPLSRVQPIPASHLELPFQIIRCSLEGPMELNGSCSQLVMELLRNAMLNQSVVLSVKAISKNVHAVSVEKCSENGMINIAENLVMCGLAENLTSKRKSASTKEIPHSRDCCCTELQKQIEKHEQILLFLLNNPTNQSKFTEMKKLLRS
	binds	MOV10L1 (protein, UniProt Q99MV5 1-1187) MIDDLIYFSNDAVTSTVLLNVGQEVIAVVEENKVSNGLKAIRVEAVSDKWEDDSKNSSKGLSDSSPRVLIGCVTSMLEGAGYISQTTYFSLESVCEGFHPCKGDWVEAEYWIRPGTWSSEAISVKPLRYKRVDKVCISSLCGRNGVIEDSIFFSLDSLKLPEGYIPRRHDIVNAVVVESSQSCYIWRALCMTPVKRDATLGEAPQEPYGALLLKNKGDIEVTRMTSFGTLKEGESKSIVIWIENKGKFSRELVSCRLANWDKAHQFRFETQGRSKSCPGAAAGSVPEGENVNSLNHHREDKTDEIPESRLANSTEISPDGCACKEESREKGNTPEKQEPEPGGLIPPGEKTHIVVTCSAKNPGRCKELLLLCFSDFLIGRHLEVSVVSSEEALIAVREPFSWKKPKSSQTLVSAKTTVVVTTQKRNSRRQLPSFLPQYPIPDRLKKCVEQKIDILTFQPLLAELLNMSNYKEKFSTLLWLEEIHAEIELKEYNMSRVVLKRKGDLLVLEVPGLAESRPSLYAGDKLILKSQEYNGHVIEYIGYVMEIHEEDVTLKLNPGFEQMYNFEPMDVEFTYNRTTSRRCHYALEQVIHLGVKVLFPEEIILQSPQVTGNWSLAQDTKNDGQSITNITRNDGQSMTKVTRNDSQSITNIIRNDGQSITNVTRNDGQPITKVTRNNSQSITNITRNDGQPITKNKKTVKDQTKHTTEERHVGTTDQPEKASSTAETMDEIQIPKARDKEFFNPVLNENQKLAVRRILSGDCRPLPYILFGPPGTGKTVTIIEAVLQVHYALPDSRILVCAPSNSAADLVCLRLHESKVPKPAAMVRVNATCRFEETIIDAIKPYCRDGEDIWRASRFRIIITTCSSAGLFYQIGVRVGYFTHVFVDEAGQASEPECLIPLGLISDINGQIVLAGDPMQLGPVIKSRLAMAYGLNVSMLERLMSRPAYLRDENAFGACGAYNPLLVTKLVKNYRSHSALLALPSRLFYHRELEVCADPKVVTSLLGWEKLPRKGFPLIFHGVRGNEAREGRSPSWFSPAEAVQVMRYCCLLARSVSSQVSSKDIGVITPYRKQVEKIKILLRNVDLTDIKVGSVEEFQGQEYLVIVISTVRSNEDRFEDDRYFLGFLSNSKRFNVAITRPKALLIILGNPHVLVRDPCFGALLEYSVSNGVYTGCDLPPELQALQK

— paper PMC3499362
